Where a name gives a salt, the structure may show the parent alone. The list shows a part of the results. Hit calls seldom repeat between salt and free forms of one compound.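 In K562 cells expressing nanoluciferase-fused kinases, luminescence was recorded at 4 h intervals between 2 and 18 h, normalized as percent of control with DMSO at 100% and a positive control at 0%. A significant (2 sigma) signal drop marks a time point as decreased. The authors' rule for a hit is not shown and takes in more than the number of time points.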
The molecules below were run on BRAF_V600E (assay: number of time points (of 5) at which kinase-Nluc abundance scored as decreased, DMSO-normalised (count); higher = more persistent destabilization). Details: K562; 2-18 h.

In order of rising “number of time points” value:
1. C[C@@H]1CCN(C(=O)CC#N)C[C@@H]1N(C)c1ncnc2[nH]ccc12 [Tofacitinib] (10 µM)  0
2. CC#CC(=O)N1CC[C@@H](n2c(=O)n(-c3ccc(Oc4ccccc4)cc3)c3c(N)ncnc32)C1 [Tirabrutinib (hydrochloride)] (10 µM)  0
3. Cc1ccc(C(=O)Nc2ccc(Oc3cc4cnn(C)c4cc3-c3cn[nH]c3)c(F)c2)c(=O)n1-c1ccc(F)cc1 [Merestinib] (2.5 µM)  0
4. Cc1cc(Nc2ncnc3ccc(NC4=NC(C)(C)CO4)cc23)ccc1Oc1ccn2ncnc2c1 [Tucatinib (hemiethanolate)] (2.5 µM)  0
5. C[C@@]1(c2ncncc2F)NC(=O)c2cc(-c3cn[nH]c3)ccc21 (10 µM)  0
6. COc1cc(Nc2ncc(F)c(Nc3ccc4c(n3)NC(=O)C(C)(C)O4)n2)cc(OC)c1OC (10 µM)  0
7. Cc1cc2ncc(-c3ccc(O)c(O)c3)nc2cc1C [Tyrphostin AG1433] (10 µM)  0
8. C=CC(=O)Nc1cccc(Nc2nc(Nc3ccc(N4CCN(C(C)=O)CC4)cc3OC)ncc2C(F)(F)F)c1 [Rociletinib hydrobromide] (10 µM)  0
9. Cc1cc(Nc2ncnc3ccc(NC4=NC(C)(C)CO4)cc23)ccc1Oc1ccn2ncnc2c1 [Tucatinib] (2.5 µM)  0
10. CCc1cc2c(cc1N1CCC(N3CCOCC3)CC1)C(C)(C)c1[nH]c3cc(C#N)ccc3c1C2=O [Alectinib (Hydrochloride)] (2 µM)  0
11. Cn1nccc1Nc1nccc(-c2ccn([C@H](CO)c3ccc(Cl)c(F)c3)c(=O)c2)n1 [Ravoxertinib hydrochloride] (10 µM)  0
12. COc1cc2c(N3CCN(C(=O)Nc4ccc(OC(C)C)cc4)CC3)ncnc2cc1OCCCN1CCCCC1 [Tandutinib] (10 µM)  0
13. CC#CC(=O)N1CC[C@@H](n2c(=O)n(-c3ccc(Oc4ccccc4)cc3)c3c(N)ncnc32)C1 [Tirabrutinib] (10 µM)  0
14. COc1cc(Nc2ncc(F)c(Nc3ccc4c(n3)N(COP(=O)(O)O)C(=O)C(C)(C)O4)n2)cc(OC)c1OC [Fostamatinib Disodium] (10 µM)  0
15. COc1cc2c(N3CCN(C(=O)Nc4ccc(OC(C)C)cc4)CC3)ncnc2cc1OCCCN1CCCCC1 [Tandutinib (hydrochloride)] (10 µM)  0
16. COc1cc(Nc2ncc(F)c(Nc3ccc4c(n3)N(COP(=O)(O)O)C(=O)C(C)(C)O4)n2)cc(OC)c1OC [Fostamatinib (disodium hexahydrate)] (10 µM)  0
17. Oc1ccc(Nc2nc(-c3ccc(Cl)cc3)cs2)cc1 (10 µM)  0
18. NC(=O)c1nc(Nc2ccccc2)sc1NC(=O)C1CCCCC1 (10 µM)  0
19. CC1=C(C(=O)O)N2C(=O)[C@@H](NC(=O)[C@H](N)C3=CCC=CC3)[C@H]2SC1 [Cephradine] (10 µM)  0
20. Cc1ccc(C(=O)Nc2ccc(Oc3cc4cnn(C)c4cc3-c3cn[nH]c3)c(F)c2)c(=O)n1-c1ccc(F)cc1 [Merestinib dihydrochloride] (2.5 µM)  0
21. Cc1ccc2nc(NCCN)c3ncc(C)n3c2c1 (2.5 µM)  0
22. CC(=O)NC1CC(n2cnc(NC(=O)Cc3ccc4ccccc4c3)c2)C1 (centres undefined) (10 µM)  0
23. COc1cc2nccc(Oc3ccc(NC(=O)NC4CC4)c(Cl)c3)c2cc1C(N)=O [Lenvatinib] (10 µM)  0
24. CCN1CCN(Cc2ccc(Nc3ncc(F)c(-c4cc(F)c5nc(C)n(C(C)C)c5c4)n3)nc2)CC1 [Abemaciclib] (2 µM)  0
25. C[C@@H]1CCN(C(=O)CC#N)C[C@@H]1N(C)c1ncnc2[nH]ccc12 [Tofacitinib (citrate)] (10 µM)  0
26. Cn1nccc1Nc1nccc(-c2ccn([C@H](CO)c3ccc(Cl)c(F)c3)c(=O)c2)n1 [Ravoxertinib] (10 µM)  0
27. COc1cc(Nc2ncc(F)c(Nc3ccc4c(n3)NC(=O)C(C)(C)O4)n2)cc(OC)c1OC [R406 (free base)] (10 µM)  0
28. CC1CCc2c(cc(Br)c(F)c2Br)N1C=O (centres undefined) (10 µM)  0
29. Cc1[nH]c(/C=C2\C(=O)Nc3ccccc32)c(C)c1CCC(=O)O [(Z)-Orantinib] (10 µM)  0
30. CCc1cc2c(cc1N1CCC(N3CCOCC3)CC1)C(C)(C)c1[nH]c3cc(C#N)ccc3c1C2=O [Alectinib] (10 µM)  0
31. C=C(CC[C@@H](C(=O)O)[C@H]1[C@H](O)C[C@@]2(C)C3=C(CC[C@]12C)[C@@]1(C)CC[C@H](OC(C)=O)C(C)(C)[C@@H]1CC3)C(C)C [Pachymic acid] (10 µM)  0
32. Cc1[nH]c(/C=C2\C(=O)Nc3ccccc32)c(C)c1CCC(=O)O [Orantinib] (10 µM)  0
33. C=CC(=O)Nc1ccc(CN2C(=O)N(c3cc(OC)cc(OC)c3)Cc3cnc(Nc4ccc(N5CCN(C)CC5)cc4)nc32)cc1 (2.5 µM)  0
34. C=CC(=O)Nc1cccc(Nc2nc(Nc3ccc(N4CCN(C(C)=O)CC4)cc3OC)ncc2C(F)(F)F)c1 [Rociletinib] (10 µM)  1
35. Cn1cnc2c(F)c(Nc3ccc(Br)cc3Cl)c(C(=O)NOCCO)cc21 [Selumetinib (sulfate)] (10 µM)  2
36. Cn1cnc2c(F)c(Nc3ccc(Br)cc3Cl)c(C(=O)NOCCO)cc21 [Selumetinib] (10 µM)  2
37. COc1cc2nccc(Oc3ccc(NC(=O)NC4CC4)c(Cl)c3)c2cc1C(N)=O [Lenvatinib (mesylate)] (10 µM)  3
38. S=C(SSC(=S)N1CCOCC1)N1CCOCC1 (10 µM)  3
39. CCN1CCN(Cc2ccc(Nc3ncc(F)c(-c4cc(F)c5nc(C)n(C(C)C)c5c4)n3)nc2)CC1 [Abemaciclib (methanesulfonate)] (10 µM)  4
